Laboratory results taken from article PMC7507032.

Biological target: T1, Myc-TEX10 (testis expressed 10) (UniProt Q9NXF1)
T1 sequence: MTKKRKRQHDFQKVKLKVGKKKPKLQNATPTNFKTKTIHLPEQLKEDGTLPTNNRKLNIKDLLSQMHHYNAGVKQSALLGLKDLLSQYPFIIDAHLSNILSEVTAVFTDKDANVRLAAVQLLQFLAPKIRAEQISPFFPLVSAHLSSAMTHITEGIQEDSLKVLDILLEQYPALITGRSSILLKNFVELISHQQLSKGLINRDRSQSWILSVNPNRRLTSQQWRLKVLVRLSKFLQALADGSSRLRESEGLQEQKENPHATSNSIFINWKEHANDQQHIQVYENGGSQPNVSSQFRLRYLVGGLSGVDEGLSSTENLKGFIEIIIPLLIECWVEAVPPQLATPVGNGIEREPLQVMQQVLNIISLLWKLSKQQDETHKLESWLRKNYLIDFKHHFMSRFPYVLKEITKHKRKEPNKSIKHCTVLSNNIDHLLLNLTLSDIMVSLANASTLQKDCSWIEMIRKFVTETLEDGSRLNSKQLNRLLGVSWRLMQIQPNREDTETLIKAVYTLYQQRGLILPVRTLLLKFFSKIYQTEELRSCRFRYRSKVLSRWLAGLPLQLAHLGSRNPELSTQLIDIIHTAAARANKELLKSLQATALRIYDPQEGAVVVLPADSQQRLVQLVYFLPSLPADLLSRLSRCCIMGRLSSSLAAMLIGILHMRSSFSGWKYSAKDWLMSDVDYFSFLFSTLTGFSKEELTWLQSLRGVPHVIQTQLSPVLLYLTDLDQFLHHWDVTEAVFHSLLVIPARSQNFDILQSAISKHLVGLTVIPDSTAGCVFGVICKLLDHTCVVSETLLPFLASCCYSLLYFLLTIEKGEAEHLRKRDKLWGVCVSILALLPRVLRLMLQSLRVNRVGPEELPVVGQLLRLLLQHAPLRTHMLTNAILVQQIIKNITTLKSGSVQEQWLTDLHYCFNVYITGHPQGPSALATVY
Experiment: co-IP; HEK293T cells cotransfected with Flag-tagged proteins and Myc-TEX10; lysates immunoprecipitated with anti-Myc, immunoblot with anti-Flag and anti-Myc; antibody 1 h at 4 °C, protein G beads overnight

binding: no binding
Substance: Flag-RELA-C (transcription activation domain only) (domain or fragment)

No constants are given. Whether binding was seen depends on the method and setting. Binding seen in cells or lysates may run through a third protein. Where a sequence is shown, tags or fusion partners need not be part of it.
